Assay results from paper PMC6208443 (Nature Communications, 2018).

Legend:
CMT3 = test: Peptide affinity purification and mass spectrometry, CMT3; format: binding, Arabidopsis thaliana; conditions: pull-down of nuclear extracts of Arabidopsis flowers with 2 μg biotinylated peptide, 3 h, 4 °C; LC-MS/MS
Experimental: (§1) To extract the nuclear proteins for peptide affinity purification, 1 g of wild-type Arabidopsis flowers was harvested and ground in liquid nitrogen. […] The filtrates were centrifuged at 2000 g for 15 min at 4 °C to precipitate the nuclei. Nuclear pellets were washed two times with 1 ml of Honda buffer and then were resuspended in 600 μl of Nuclei Lysis Buffer (50 mM Tris-HCl pH 8.0, 150 mM NaCl, 1% NP40, 0.5 mM DTT, 1 mM PMSF, Roche protease inhibitor cocktail). After sonication, nuclei extracts were centrifuged at 20,000 g for 10 min at 4 °C. The supernatant was incubated with 2 μg of biotinylated histone peptides and Streptavidin Magnetic Beads (Thermo Scientific, 88816) for 3 h with rotation at 4 °C. […] After incubation, beads were washed three times with wash buffer 1 (320 mM NaCl, 50 mM Tris-HCl pH 8.0, 0.5% NP40), and three times with wash buffer 2 (150 mM NaCl, 50 mM Tris-HCl pH 8.0).
For LC-MS/MS analysis, IP beads with captured proteins were lysed in 12 mM sodium deoxycholate (SDC)-sodium lauroyl sarcosinate (SLS): 100 mM Tris-HCl (pH 8.5), 12 mM SDC, and 12 mM SLS. Proteins were reduced and alkylated with 10 mM tris-(2-carboxyethyl) phosphine and 40 mM chloroacetamide at 95 °C for 5 min. The supernatant containing reduced and alkylated proteins was transferred into a new Eppendorf tube and diluted fivefold with 50 mM triethylammonium hydrogen carbonate buffer and digested with 500 ng trypsin (Sigma) overnight. The SDC and SLS were removed by adding 100% acetyl acetate in a ratio 1:1 (vol/vol) sample to acetyl acetate volume ratio. Samples were acidified with 10% trifluoroacetic acid to pH ~3, and desalted by a custom-made stage tip with a styrene divinyl benzene (SDB-XC) membrane (3 M). The dried peptides were resuspended in 30 μL of 0.3% formic acid (FA) with 3% acetonitrile (ACN), quantified by BCA assay (Thermo Fisher Scientific), and injected into an Easy-nLC 1000 (Thermo Fisher Scientific). Peptides were separated on a 45 cm in-house packed column (360 μm OD × 75 μm ID) containing C18 resin (2.2 μm, 100 Å, Michrom Bioresources) with a 30 cm column heater (Analytical Sales and Services) set at 60 °C. The mobile phase buffer consisted of 0.1% FA in ultra-pure water (buffer A) with an eluting buffer of 0.1% FA in 80% ACN (buffer B) run over a linear 65 min gradient of 5%-30% buffer B at a flow rate of 250 nL/min. The Easy-nLC 1000 was coupled online with a Velos Pro LTQ-Orbitrap mass spectrometer (Thermo Fisher Scientific). The mass spectrometer was operated in the data-dependent mode in which a full MS scan (from m/z 350–1500 with the resolution of 30,000 at 400 m/z) was followed by the 10 most intense ions being subjected to collision-induced dissociation (CID) fragmentation. CID fragmentation was performed and acquired in the linear ion trap (normalized collision energy 30%, AGC 3e4, max injection time 100 ms, isolation window 3 m/z, and dynamic exclusion 60 s). The raw files were searched directly against Arabidopsis thaliana database (TAIR10) with no redundant entries using SEQUEST HT algorithm in Proteome Discoverer version 2.2 (Thermo Fisher Scientific). Peptide precursor mass tolerance was set at 15 ppm, and MS/MS tolerance was set to 0.6 Da. Search criteria included a variable modifications of oxidation ( + 15.995 Da) on methionine residues, and acetylation ( + 42.011 Da) at N-terminus of protein, and a static carbamidomethylation of cysteines ( + 57.021 Da). Search was performed with full tryptic digestion and allowed a maximum of two missed cleavages on the peptides analyzed from the sequence database. Relaxed and strict false discovery rates were set for 0.05 and 0.01, respectively.

AGDP1 = test: Peptide affinity purification and mass spectrometry, AGDP1; format: binding, Arabidopsis thaliana; conditions: pull-down of nuclear extracts of Arabidopsis flowers with 2 μg biotinylated peptide, 3 h, 4 °C; LC-MS/MS
Experimental: as §1
For LC-MS/MS analysis, IP beads with captured proteins were lysed in 12 mM sodium deoxycholate (SDC)-sodium lauroyl sarcosinate (SLS): 100 mM Tris-HCl (pH 8.5), 12 mM SDC, and 12 mM SLS. […] The dried peptides were resuspended in 30 μL of 0.3% formic acid (FA) with 3% acetonitrile (ACN), quantified by BCA assay (Thermo Fisher Scientific), and injected into an Easy-nLC 1000 (Thermo Fisher Scientific). […]

Substance | Coverage (%) (CMT3) | Unique Peptides (CMT3) | Coverage (%) (AGDP1)
H3(1-21): synthesized biotinylated H3(1-21) peptide, EMD Millipore | 0 | 0 | 
H3(1-21)K9me1: synthesized biotinylated H3(1-21)K9me1 peptide, EMD Millipore | 21.93 | 14 | 11.41
H3(1-21)K9me2: synthesized biotinylated H3(1-21)K9me2 peptide, EMD Millipore | 32.54 | 23 | 
H3(1-21)K9me3: synthesized biotinylated H3(1-21)K9me3 peptide, EMD Millipore | 23.48 | 17 | 
